We go through 42 sequences from publication PMC7819943, “Rice protein-binding microarrays: a tool to detect cis-acting elements near promoter regions in rice”.

By UniProt entry, the sequences of proteins in these tests, tags left out.
UniProt Q0JBA9, entry or part of it: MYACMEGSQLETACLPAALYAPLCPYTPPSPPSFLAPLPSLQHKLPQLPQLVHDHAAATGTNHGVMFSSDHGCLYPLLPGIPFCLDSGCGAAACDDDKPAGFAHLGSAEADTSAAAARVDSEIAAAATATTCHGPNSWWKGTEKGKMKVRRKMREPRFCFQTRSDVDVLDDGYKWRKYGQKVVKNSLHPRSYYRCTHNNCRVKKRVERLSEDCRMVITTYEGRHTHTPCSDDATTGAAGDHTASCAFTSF

Some of the results follow.

The target of this assay is OsWRKY34 (Oryza sativa, UniProt Q0JBA9 1-250). Put plainly: protein-binding microarray (RPBM); PBS, 2% BSA, 51.3 ng/ul salmon testes DNA, 50 uM zinc acetate, 200 nM TF, 25 C, 1 h; high values mean tight binding. Conditions: protein: recombinant; tags: N-terminal polyhistidine and DsRed monomer fusion (pET32a); label: CyDye5-dUTP incorporated in the synthesized complementary strand; 3' TTTTT single-stranded linker to array surface; dsDNA, one strand shown. The gist of the method:
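Transcription factors were each fused at the N-terminus to a polyhistidine tag plus DsRed and expressed in E. coli BL21-CodonPlus before Ni–NTA purification. Binding to a double-stranded custom Agilent array was carried out with 200 nM protein at 25 °C for 1 h in PBS, 2% BSA, salmon testes DNA and 50 µM zinc acetate. The binding signal is per-feature fluorescence intensity, in arbitrary units, on an Axon 4000B scanner.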
Consider “GCTTTGGTCGGTTGGGGTGGGCTGGATGCGCCTCCGCGCTCGGAGTCACCTAGTGCAG”, for which the binding signal was 17800 fluorescence intensity (a.u.).
The value for “CAGCTATATTTTACATGTTTTGAAAAGTTGACCAAGGGACCGGAGTCACCTAGTGCAG” was 8160 fluorescence intensity (a.u.); that for “CGATCGATCTCTGCATGGACCTAGCATGTTGCAACTTTATCGGAGTCACCTAGTGCAG” was 11400 fluorescence intensity (a.u.).
Consider “GGGATGGATGGAGGCGGCGGTGCTGAGGTGGTGGGACTGTCGGAGTCACCTAGTGCAG”, for which the binding signal was 8460 fluorescence intensity (a.u.).
In the case of “TCTTTTCAGTCAGGTTAGTATGCCTGTATCTACCTCTCGCCGGAGTCACCTAGTGCAG”, the binding signal is 10400 fluorescence intensity (a.u.).
Regarding “GGCGTGGAGGTGGGGATCTCCTGCGGGCTGTTCCACTCCGCGGAGTCACCTAGTGCAG”, the binding signal was 8530 fluorescence intensity (a.u.).
Next, “GCAGCAGCTTTTGGTCACGTTGCTATCAGCTTCAATTCTCCGGAGTCACCTAGTGCAG”: 8580 fluorescence intensity (a.u.); “CTACCAAGACTACCACCATCTATCTATCATTCTATCATTCCGGAGTCACCTAGTGCAG”: 8530 fluorescence intensity (a.u.); “CTTACCTTAACTTGCATTCGGCAACTTCCATCTCTTTGCACGGAGTCACCTAGTGCAG”: 10300 fluorescence intensity (a.u.).
With “CATCTTATTTATGACTTTGATGCTCTTTGTGATAGATTTCCGGAGTCACCTAGTGCAG”, the binding signal was 9410 fluorescence intensity (a.u.).
As to “TGAACCAGTCAACTGCCACGTCTCACTATTTTTCTCTCTCCGGAGTCACCTAGTGCAG”, the binding signal is 9190 fluorescence intensity (a.u.).
“CCTAAGAGTAAATTGCATCTTGGGTCTGTTTTTATTACCGCGGAGTCACCTAGTGCAG”: the binding signal was 8360 fluorescence intensity (a.u.).
Consider “AAACTCCTATCGTAAGGGAGGGTGGGGTAGGGTACCACTACGGAGTCACCTAGTGCAG”, for which the binding signal was 14100 fluorescence intensity (a.u.).
As for “TTGTTGTCCATGTGAAAATGGATATATATAGTATTATTGTCGGAGTCACCTAGTGCAG”, the binding signal was 8220 fluorescence intensity (a.u.).
As to “GTAGTAGTAGTAACATTATTTGACCAAACCGACCGACCTACGGAGTCACCTAGTGCAG”, the binding signal is 9690 fluorescence intensity (a.u.).
Take “CCGCCCCGTCCTGTTCCCCAACGCTAGCTCCCATTCCCCACGGAGTCACCTAGTGCAG”: the binding signal was 8820 fluorescence intensity (a.u.).
For “CCTTTTCCAACGACTTCTTCTTCTTCCTGCTCTACCTTCTCGGAGTCACCTAGTGCAG”, the binding signal was 9560 fluorescence intensity (a.u.).
With “GAATCCAACCAAAACTTTTCTATTGTGCGCAACTATCTATCGGAGTCACCTAGTGCAG”, the binding signal was 8120 fluorescence intensity (a.u.).
Next, “TTTTCCCGCCTCCGATCCACTCCCATCCACACATGCATCACGGAGTCACCTAGTGCAG”: 9300 fluorescence intensity (a.u.); “ATGTGTGGTTTTGTATCTCTTTATCTGCGCACATACATAACGGAGTCACCTAGTGCAG”: 8900 fluorescence intensity (a.u.); “TCATGTGTGCTTATTTCACCCTGGCATAACCAATTTTCTACGGAGTCACCTAGTGCAG”: 9110 fluorescence intensity (a.u.).
Turning to “AAAAGATCCCAACTCGTTTTCTTTCACCCTAAGATCTTTCCGGAGTCACCTAGTGCAG”, the binding signal was 8100 fluorescence intensity (a.u.).
Regarding “CTTATCAACACCTTACTTGCTGCCTGCCTGCCTGCCTCATCGGAGTCACCTAGTGCAG”, the binding signal is 10300 fluorescence intensity (a.u.).
Consider “CTTCAGCCAGCGAGTTTATATTGACTTTTGCATCTTGTGCCGGAGTCACCTAGTGCAG”, for which the binding signal is 10300 fluorescence intensity (a.u.).
Take “CTTCGTTTTCCGTACGTACGTTTCCCGAATTGCTAAACGACGGAGTCACCTAGTGCAG”: the binding signal was 8570 fluorescence intensity (a.u.).
On to “GCTAAGGGTGTGGTTGGTTGCCTGGCTCGTCCCTGGCTCGCGGAGTCACCTAGTGCAG”, for which the binding signal is 9660 fluorescence intensity (a.u.).
For “GGTCAGTTAGTCGGTATCCGTCACGTCTCTCGTCGCAATCCGGAGTCACCTAGTGCAG”, the binding signal is 9520 fluorescence intensity (a.u.).
For the sequence “CTGGGATGCTCATGCTCTTTGCTAGCTGCCTTTGCATTACCGGAGTCACCTAGTGCAG”, the binding signal is 9120 fluorescence intensity (a.u.).
Take “TTTCTGAGAGGCATAGTTCATGTTTCCCCATATATACTTCCGGAGTCACCTAGTGCAG”: the binding signal was 8830 fluorescence intensity (a.u.).
In the case of “GTGGTATGTTAACGAATTGGTCGATTACTAAAACTAGACTCGGAGTCACCTAGTGCAG”, the binding signal is 8030 fluorescence intensity (a.u.).
The value for “TTTCTTTACTGATTGGTTTGTTTTATGCGCACATTGTTACCGGAGTCACCTAGTGCAG” was 9380 fluorescence intensity (a.u.); that for “GACACCCGTTTCCCTGACTCGATTTTCTAGGTTTCATCCACGGAGTCACCTAGTGCAG” was 11800 fluorescence intensity (a.u.).
With “CTGGAAAAGAAGTTGTGTGTTGTTGGTCTACATTGCATTCCGGAGTCACCTAGTGCAG”, the binding signal is 10900 fluorescence intensity (a.u.).
Next, “CCGCGGATTGCGTGCCAACGTTTGACTGTCCGTCTTATATCGGAGTCACCTAGTGCAG”: 8520 fluorescence intensity (a.u.); “AGTTTACAGGAACTGTGCCATTTTCTTATGTTTATCTTCACGGAGTCACCTAGTGCAG”: 10300 fluorescence intensity (a.u.); “CCACCTTATTATCTACTTTACACATATATATATTGTGGTGCGGAGTCACCTAGTGCAG”: 8160 fluorescence intensity (a.u.).
Next, “AAGGGGCAATATGGTCCAAGGGCAGGGTCGTAAATACCTACGGAGTCACCTAGTGCAG”: 8190 fluorescence intensity (a.u.); “CTTTATATAAGGCAGGTTAGATGGGTTTTTTGGGCTTGTACGGAGTCACCTAGTGCAG”: 9240 fluorescence intensity (a.u.); “ATCCCCGCGAAGCCGCCATGAATGACGCCCACCCTTCCCACGGAGTCACCTAGTGCAG”: 8290 fluorescence intensity (a.u.).
For the sequence “AAATCAACCAAGTTCCATTTCATTTCTTGCATCTCCAATTCGGAGTCACCTAGTGCAG”, the binding signal was 8480 fluorescence intensity (a.u.).
On to “GCTGCGAGCCTCACCGTTCTTCTCGCTTGCAACATTCTGACGGAGTCACCTAGTGCAG”, for which the binding signal was 14000 fluorescence intensity (a.u.).
Next, “CAGTATCTTACTTCTCAGCTGCTCAATCATCAGCTGCCACCGGAGTCACCTAGTGCAG”: 9310 fluorescence intensity (a.u.).
